# Test results: the supplement of paper PMC6411743
# The chains behind the UniProt entries cited, without tags or fusion partners. Where a name states a change or a piece, a line headed by the entry shows the natural chain unless it says otherwise.
# UniProt P53365: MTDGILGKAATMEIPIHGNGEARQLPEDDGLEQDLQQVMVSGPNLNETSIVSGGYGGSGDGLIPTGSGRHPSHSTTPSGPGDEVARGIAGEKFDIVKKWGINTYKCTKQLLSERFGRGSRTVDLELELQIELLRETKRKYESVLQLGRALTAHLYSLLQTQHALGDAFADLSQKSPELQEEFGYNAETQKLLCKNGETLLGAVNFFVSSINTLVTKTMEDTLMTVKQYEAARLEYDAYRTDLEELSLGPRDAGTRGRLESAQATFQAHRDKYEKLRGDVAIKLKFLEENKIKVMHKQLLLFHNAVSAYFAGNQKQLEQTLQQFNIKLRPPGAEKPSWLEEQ
# UniProt P56385: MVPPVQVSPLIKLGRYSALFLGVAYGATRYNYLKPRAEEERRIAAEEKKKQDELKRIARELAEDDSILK
# UniProt P78346: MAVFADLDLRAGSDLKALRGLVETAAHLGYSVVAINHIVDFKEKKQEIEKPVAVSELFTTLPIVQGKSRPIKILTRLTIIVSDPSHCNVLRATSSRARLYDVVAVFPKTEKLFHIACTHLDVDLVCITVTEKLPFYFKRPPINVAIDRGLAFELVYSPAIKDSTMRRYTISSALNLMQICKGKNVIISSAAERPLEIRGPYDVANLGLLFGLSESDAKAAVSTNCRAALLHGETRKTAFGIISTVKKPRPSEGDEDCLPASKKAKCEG
# UniProt P54577: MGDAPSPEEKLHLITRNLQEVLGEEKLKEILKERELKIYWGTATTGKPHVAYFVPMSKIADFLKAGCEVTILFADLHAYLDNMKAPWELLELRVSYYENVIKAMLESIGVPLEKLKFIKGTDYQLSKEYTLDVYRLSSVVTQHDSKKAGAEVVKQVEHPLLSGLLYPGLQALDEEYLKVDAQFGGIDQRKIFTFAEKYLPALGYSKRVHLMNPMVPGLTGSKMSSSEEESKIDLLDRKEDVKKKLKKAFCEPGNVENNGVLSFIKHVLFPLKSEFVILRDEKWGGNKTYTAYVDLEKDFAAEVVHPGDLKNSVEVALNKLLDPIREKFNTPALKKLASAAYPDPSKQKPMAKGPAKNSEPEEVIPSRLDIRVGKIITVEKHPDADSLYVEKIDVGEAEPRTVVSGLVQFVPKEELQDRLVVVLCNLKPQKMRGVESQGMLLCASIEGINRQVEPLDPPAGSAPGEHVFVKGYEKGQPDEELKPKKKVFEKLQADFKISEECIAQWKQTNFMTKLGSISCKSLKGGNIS
# UniProt P53621: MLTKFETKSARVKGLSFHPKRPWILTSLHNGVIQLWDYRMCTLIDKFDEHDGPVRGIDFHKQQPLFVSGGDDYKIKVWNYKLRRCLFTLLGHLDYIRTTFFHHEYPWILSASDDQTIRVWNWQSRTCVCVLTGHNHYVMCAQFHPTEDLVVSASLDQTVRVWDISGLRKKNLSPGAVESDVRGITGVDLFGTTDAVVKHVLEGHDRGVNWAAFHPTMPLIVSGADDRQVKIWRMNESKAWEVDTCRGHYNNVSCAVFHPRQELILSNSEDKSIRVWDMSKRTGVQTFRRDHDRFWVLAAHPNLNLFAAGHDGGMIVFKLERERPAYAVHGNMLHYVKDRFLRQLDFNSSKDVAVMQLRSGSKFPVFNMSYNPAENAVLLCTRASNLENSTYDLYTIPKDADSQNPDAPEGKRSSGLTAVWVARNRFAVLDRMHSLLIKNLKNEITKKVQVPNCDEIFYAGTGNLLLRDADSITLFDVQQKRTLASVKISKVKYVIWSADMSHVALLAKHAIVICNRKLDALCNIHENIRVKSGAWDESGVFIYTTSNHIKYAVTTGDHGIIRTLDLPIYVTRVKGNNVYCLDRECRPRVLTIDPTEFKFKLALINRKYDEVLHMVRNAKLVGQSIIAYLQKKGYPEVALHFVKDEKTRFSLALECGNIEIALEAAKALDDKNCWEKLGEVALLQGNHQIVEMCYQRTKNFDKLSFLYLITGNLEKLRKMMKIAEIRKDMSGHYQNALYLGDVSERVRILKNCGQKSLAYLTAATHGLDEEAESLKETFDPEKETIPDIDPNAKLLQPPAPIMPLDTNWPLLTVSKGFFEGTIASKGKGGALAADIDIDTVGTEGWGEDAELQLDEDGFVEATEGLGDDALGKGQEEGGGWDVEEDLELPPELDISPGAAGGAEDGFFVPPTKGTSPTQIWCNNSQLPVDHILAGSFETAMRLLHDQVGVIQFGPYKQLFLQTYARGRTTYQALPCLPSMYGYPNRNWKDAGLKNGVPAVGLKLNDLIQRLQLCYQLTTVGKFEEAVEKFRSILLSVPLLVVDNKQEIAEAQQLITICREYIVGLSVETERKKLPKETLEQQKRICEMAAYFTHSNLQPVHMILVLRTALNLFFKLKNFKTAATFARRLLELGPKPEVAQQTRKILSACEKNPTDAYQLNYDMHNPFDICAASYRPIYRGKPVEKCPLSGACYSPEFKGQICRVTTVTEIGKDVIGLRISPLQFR
# UniProt Q00613: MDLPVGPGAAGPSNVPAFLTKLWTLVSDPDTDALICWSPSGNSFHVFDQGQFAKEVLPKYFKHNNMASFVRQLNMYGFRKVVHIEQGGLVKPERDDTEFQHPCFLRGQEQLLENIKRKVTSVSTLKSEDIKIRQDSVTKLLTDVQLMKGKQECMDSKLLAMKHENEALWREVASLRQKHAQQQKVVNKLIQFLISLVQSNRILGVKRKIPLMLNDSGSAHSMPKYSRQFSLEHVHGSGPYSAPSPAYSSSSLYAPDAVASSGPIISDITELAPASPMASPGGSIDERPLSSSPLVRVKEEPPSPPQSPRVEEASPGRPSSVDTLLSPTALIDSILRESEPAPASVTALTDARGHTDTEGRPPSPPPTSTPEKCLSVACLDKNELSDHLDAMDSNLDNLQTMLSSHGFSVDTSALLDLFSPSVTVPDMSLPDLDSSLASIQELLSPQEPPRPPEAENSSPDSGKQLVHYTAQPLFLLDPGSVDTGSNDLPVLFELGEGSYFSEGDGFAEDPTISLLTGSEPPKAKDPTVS
# UniProt P58546, whole entry: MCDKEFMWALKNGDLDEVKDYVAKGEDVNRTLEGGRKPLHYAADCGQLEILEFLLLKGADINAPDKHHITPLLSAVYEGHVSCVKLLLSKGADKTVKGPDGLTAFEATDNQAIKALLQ
# UniProt P54578: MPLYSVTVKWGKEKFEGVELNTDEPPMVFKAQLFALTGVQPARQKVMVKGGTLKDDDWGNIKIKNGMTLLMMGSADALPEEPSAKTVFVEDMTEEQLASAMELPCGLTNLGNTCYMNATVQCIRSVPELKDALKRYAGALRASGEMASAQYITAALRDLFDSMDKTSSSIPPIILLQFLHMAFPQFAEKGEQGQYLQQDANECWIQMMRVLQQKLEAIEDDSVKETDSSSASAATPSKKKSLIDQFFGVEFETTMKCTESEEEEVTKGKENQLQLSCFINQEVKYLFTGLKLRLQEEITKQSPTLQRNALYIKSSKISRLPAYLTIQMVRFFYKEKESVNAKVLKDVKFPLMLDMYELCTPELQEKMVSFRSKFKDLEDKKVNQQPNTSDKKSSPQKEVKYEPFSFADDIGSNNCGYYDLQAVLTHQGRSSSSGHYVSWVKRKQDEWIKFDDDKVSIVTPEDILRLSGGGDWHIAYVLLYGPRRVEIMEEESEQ
# UniProt P98095: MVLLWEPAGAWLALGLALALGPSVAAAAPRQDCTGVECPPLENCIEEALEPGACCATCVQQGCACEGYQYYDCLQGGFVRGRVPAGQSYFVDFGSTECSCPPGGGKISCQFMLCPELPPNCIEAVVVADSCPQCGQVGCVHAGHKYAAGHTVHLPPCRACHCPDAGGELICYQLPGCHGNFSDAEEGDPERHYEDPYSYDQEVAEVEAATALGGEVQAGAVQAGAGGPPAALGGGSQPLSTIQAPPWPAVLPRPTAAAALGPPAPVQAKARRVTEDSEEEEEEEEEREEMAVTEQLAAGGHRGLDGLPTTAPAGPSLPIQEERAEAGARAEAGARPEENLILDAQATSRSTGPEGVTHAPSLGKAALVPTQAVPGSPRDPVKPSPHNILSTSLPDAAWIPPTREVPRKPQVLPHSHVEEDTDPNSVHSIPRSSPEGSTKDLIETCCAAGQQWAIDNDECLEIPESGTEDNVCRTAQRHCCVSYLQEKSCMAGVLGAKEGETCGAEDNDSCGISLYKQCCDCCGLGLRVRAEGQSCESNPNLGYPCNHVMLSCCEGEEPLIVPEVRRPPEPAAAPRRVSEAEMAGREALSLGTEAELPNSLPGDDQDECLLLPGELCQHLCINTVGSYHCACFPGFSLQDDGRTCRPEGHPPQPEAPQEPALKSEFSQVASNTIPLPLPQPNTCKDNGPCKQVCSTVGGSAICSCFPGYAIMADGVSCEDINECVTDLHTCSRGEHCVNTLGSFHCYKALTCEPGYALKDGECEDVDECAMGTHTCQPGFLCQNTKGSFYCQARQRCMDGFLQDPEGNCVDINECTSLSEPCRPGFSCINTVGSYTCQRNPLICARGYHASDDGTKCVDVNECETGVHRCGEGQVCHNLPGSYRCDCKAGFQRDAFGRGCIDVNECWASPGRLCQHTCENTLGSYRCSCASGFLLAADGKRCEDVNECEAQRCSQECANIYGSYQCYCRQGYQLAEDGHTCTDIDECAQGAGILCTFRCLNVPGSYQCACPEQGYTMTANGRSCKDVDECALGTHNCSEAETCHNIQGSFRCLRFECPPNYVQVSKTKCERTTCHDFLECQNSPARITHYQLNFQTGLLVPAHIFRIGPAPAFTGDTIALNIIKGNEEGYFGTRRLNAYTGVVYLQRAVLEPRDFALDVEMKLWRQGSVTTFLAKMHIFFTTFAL
# UniProt P61960, whole entry: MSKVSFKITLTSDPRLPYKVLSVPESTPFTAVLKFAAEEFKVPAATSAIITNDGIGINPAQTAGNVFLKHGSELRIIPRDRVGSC
# UniProt P61006: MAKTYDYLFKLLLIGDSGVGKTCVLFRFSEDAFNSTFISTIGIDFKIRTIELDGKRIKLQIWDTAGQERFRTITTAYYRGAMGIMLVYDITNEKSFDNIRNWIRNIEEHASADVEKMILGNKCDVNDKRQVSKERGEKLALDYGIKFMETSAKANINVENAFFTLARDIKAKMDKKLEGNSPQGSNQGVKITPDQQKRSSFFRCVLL
# UniProt P53634: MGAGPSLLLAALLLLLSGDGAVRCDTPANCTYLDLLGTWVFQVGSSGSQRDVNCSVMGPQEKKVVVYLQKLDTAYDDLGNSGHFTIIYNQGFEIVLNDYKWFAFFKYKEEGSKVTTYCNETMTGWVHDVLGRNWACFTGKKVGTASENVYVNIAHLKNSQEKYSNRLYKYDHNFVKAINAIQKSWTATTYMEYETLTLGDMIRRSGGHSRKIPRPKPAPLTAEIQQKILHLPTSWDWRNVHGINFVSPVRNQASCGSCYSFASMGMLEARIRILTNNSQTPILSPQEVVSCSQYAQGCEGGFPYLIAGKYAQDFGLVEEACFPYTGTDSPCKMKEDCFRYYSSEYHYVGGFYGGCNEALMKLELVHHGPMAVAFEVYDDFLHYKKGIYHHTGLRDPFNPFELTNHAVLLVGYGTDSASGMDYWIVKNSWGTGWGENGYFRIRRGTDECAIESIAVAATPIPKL
# UniProt P61457: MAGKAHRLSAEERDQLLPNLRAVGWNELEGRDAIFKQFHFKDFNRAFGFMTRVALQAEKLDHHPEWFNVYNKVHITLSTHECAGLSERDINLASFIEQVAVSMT
# UniProt P62995: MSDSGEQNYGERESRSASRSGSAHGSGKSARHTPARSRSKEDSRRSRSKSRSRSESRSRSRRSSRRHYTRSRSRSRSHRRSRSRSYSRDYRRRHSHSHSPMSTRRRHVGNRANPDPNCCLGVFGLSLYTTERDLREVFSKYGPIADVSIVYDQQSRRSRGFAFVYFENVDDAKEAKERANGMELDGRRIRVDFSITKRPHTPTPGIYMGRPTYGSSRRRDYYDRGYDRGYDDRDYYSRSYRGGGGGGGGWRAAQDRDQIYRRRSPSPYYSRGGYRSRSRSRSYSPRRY
# UniProt P61966: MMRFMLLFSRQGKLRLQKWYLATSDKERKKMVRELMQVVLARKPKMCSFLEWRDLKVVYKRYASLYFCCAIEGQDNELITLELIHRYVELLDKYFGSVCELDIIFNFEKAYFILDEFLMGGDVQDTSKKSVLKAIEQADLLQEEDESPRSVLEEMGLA
# UniProt P63151: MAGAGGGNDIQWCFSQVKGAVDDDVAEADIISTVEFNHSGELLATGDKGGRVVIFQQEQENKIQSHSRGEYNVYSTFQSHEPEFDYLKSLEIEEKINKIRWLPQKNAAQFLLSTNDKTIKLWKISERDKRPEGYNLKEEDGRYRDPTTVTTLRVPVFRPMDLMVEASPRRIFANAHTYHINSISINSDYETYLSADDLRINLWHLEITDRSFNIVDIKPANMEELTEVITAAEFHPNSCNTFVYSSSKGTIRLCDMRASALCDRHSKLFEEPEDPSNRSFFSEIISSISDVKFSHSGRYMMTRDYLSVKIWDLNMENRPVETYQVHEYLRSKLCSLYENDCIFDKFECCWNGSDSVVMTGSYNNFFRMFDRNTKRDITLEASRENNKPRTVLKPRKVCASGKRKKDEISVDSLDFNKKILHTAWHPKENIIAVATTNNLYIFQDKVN
# ± gives the standard deviation of the averaged measurements. The list shows a part of the results, in another mix than the full data.
# Compound: Nc1ncnc2c1ncn2[C@@H]1O[C@H](COP(=O)(O)OP(=O)(O)OP(=O)(O)O)[C@@H](O)[C@H]1O [adenosine triphosphate]
# Test: NP40-soluble protein abundance relative to vehicle (solubility fold change) (ratio); higher = more soluble protein in presence of ATP
# Outline: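 Data come from three independent experiments in which Dounce-homogenised Jurkat crude lysate was treated at eight concentrations from 0.1 to 10 mM. Treatment ran 10 min at room temperature and then 3 min at 37 °C, after which 0.8% NP40 and benzonase were added for 60 min at 4 °C before ultracentrifugation. The supernatant underwent TMT labelling and LC-MS/MS, and vsn-normalised intensities were expressed as fold change against the detergent-processed vehicle in each replicate.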
Target,NP40-soluble protein abundance (concentration: 1mM),NP40-soluble protein abundance (concentration: 2mM),NP40-soluble protein abundance (concentration: 4mM),NP40-soluble protein abundance (concentration: 6mM),NP40-soluble protein abundance (concentration: 8mM),NP40-soluble protein abundance (concentration: 10mM)
UniProt P80217 and related entries,0.974 ± 0.067,0.974 ± 0.048,0.979 ± 0.06,0.981 ± 0.041,0.9413 ± 0.0029,0.962 ± 0.024
UniProt P53365 and related entries,0.946 ± 0.042,0.979 ± 0.044,0.9428 ± 0.0078,0.933 ± 0.029,0.926 ± 0.043,0.923 ± 0.061
UniProt P82912 and related entries,1.05 ± 0.026,1 ± 0.1,0.962 ± 0.087,0.97 ± 0.15,0.95 ± 0.084,0.939 ± 0.13
UniProt P61129,0.96 ± 0.14,0.911 ± 0.029,0.85 ± 0.097,0.957 ± 0.057,0.924 ± 0.022,0.844 ± 0.043
UniProt P62877,0.98 ± 0.026,0.986 ± 0.029,0.887 ± 0.01,0.991 ± 0.057,0.922 ± 0.026,0.9141 ± 0.0062
UniProt P62829,0.957 ± 0.055,0.898 ± 0.099,0.866 ± 0.11,0.812 ± 0.08,0.741 ± 0.11,0.834 ± 0.068
UBXN2A (UniProt P68543),0.949 ± 0.069,0.938 ± 0.052,0.955 ± 0.019,0.921 ± 0.17,0.867 ± 0.021,0.948 ± 0.047
UniProt P56385,0.948 ± 0.16,0.894 ± 0.072,0.863 ± 0.057,0.99 ± 0.13,0.8988 ± 0.0036,0.844 ± 0.077
UniProt P78536 and related entries,0.931 ± 0.093,0.906 ± 0.042,0.92 ± 0.019,0.993 ± 0.057,0.891 ± 0.047,0.9124 ± 0.0024
UniProt P78346 and related entries,1.03 ± 0.12,0.979 ± 0.073,1.01 ± 0.066,1 ± 0.12,1.04 ± 0.041,1.04 ± 0.026
SLC25A1 (UniProt P53007),0.974 ± 0.11,0.962 ± 0.021,0.919 ± 0.033,0.87 ± 0.045,1.01 ± 0.092,1.06 ± 0.074
YARS (UniProt P54577),0.992 ± 0.025,0.97 ± 0.031,0.926 ± 0.033,0.998 ± 0.057,0.954 ± 0.04,0.944 ± 0.039
METAP1 (UniProt P53582),1.14 ± 0.029,1.12 ± 0.063,1.18 ± 0.066,1.26 ± 0.14,1.32 ± 0.1,1.31 ± 0.075
UniProt P67936 and related entries,1.07 ± 0.083,1.11 ± 0.15,1.21 ± 0.066,1.41 ± 0.15,1.51 ± 0.3,1.06 ± 0.51
UniProt P53805 and related entries,0.894 ± 0.043,0.927 ± 0.1,0.885 ± 0.045,0.79 ± 0.017,0.858 ± 0.1,0.935 ± 0.044
UniProt P62888,0.957 ± 0.093,0.912 ± 0.11,0.906 ± 0.18,0.863 ± 0.14,0.814 ± 0.17,0.984 ± 0.14
COPB1 (UniProt P53618),1.04 ± 0.1,1.01 ± 0.059,1 ± 0.038,0.935 ± 0.073,1.01 ± 0.019,1.01 ± 0.044
UniProt P78362-2|P78362,1.1 ± 0.013,1.149 ± 0.0076,1.24 ± 0.026,1.36 ± 0.035,1.38 ± 0.034,1.47 ± 0.026
UniProt P68366 and related entries,1 ± 0.13,1.01 ± 0.12,0.976 ± 0.17,0.991 ± 0.17,0.997 ± 0.2,0.974 ± 0.11
MAX (UniProt P61244),0.836 ± 0.13,0.756 ± 0.099,0.741 ± 0.11,0.724 ± 0.091,0.725 ± 0.055,0.644 ± 0.15

# No new results follow: an excerpt of the list.
Target,NP40-soluble protein abundance (concentration: 1mM),NP40-soluble protein abundance (concentration: 2mM),NP40-soluble protein abundance (concentration: 4mM),NP40-soluble protein abundance (concentration: 6mM),NP40-soluble protein abundance (concentration: 8mM),NP40-soluble protein abundance (concentration: 10mM)
UniProt P80217 and related entries,0.974 ± 0.067,0.974 ± 0.048,0.979 ± 0.06,0.981 ± 0.041,0.9413 ± 0.0029,0.962 ± 0.024
UniProt P53365 and related entries,0.946 ± 0.042,0.979 ± 0.044,0.9428 ± 0.0078,0.933 ± 0.029,0.926 ± 0.043,0.923 ± 0.061
UniProt P82912 and related entries,1.05 ± 0.026,1 ± 0.1,0.962 ± 0.087,0.97 ± 0.15,0.95 ± 0.084,0.939 ± 0.13
UniProt P61129,0.96 ± 0.14,0.911 ± 0.029,0.85 ± 0.097,0.957 ± 0.057,0.924 ± 0.022,0.844 ± 0.043

# (continued)

Target,NP40-soluble protein abundance (concentration: 1mM),NP40-soluble protein abundance (concentration: 2mM),NP40-soluble protein abundance (concentration: 4mM),NP40-soluble protein abundance (concentration: 6mM),NP40-soluble protein abundance (concentration: 8mM),NP40-soluble protein abundance (concentration: 10mM)
COPA (UniProt P53621),1.01 ± 0.097,0.996 ± 0.083,0.981 ± 0.052,0.923 ± 0.071,1 ± 0.032,1 ± 0.049
UniProt P61978 and related entries,0.97 ± 0.054,0.957 ± 0.041,0.922 ± 0.037,0.986 ± 0.032,0.9332 ± 0.0087,0.939 ± 0.012
UniProt P62917,0.969 ± 0.07,0.922 ± 0.12,0.901 ± 0.12,0.852 ± 0.12,0.591 ± 0.071,0.956 ± 0.12
UniProt P61313,0.988 ± 0.062,0.898 ± 0.088,0.922 ± 0.11,0.851 ± 0.11,0.771 ± 0.11,0.898 ± 0.1
UniProt P61088,0.983 ± 0.041,0.968 ± 0.031,0.956 ± 0.022,0.918 ± 0.07,0.956 ± 0.027,0.9 ± 0.068
POLG (UniProt P54098),1.01 ± 0.067,0.982 ± 0.024,1.01 ± 0.069,0.969 ± 0.07,1.01 ± 0.041,0.984 ± 0.025
UniProt Q00613 and related entries,0.953 ± 0.049,0.944 ± 0.031,0.944 ± 0.013,0.979 ± 0.022,0.961 ± 0.025,0.907 ± 0.039
RPL38 (UniProt P63173),0.875 ± 0.063,0.916 ± 0.055,0.883 ± 0.052,0.847 ± 0.09,0.766 ± 0.036,0.905 ± 0.099
UniProt P61956,0.964 ± 0.13,0.912 ± 0.041,0.9 ± 0.019,0.914 ± 0.07,0.834 ± 0.097,0.819 ± 0.095
RPL10A (UniProt P62906),1.07 ± 0.034,1.05 ± 0.038,1.03 ± 0.028,0.978 ± 0.022,0.903 ± 0.064,0.915 ± 0.032
UniProt P62875,0.952 ± 0.092,0.941 ± 0.12,0.964 ± 0.11,0.96 ± 0.2,0.971 ± 0.11,0.938 ± 0.15
UniProt P62256 and related entries,0.934 ± 0.062,0.96 ± 0.033,0.933 ± 0.05,0.94 ± 0.041,0.889 ± 0.074,0.884 ± 0.032
MTPN (UniProt P58546),0.828 ± 0.16,0.767 ± 0.15,0.705 ± 0.19,0.87 ± 0.14,0.819 ± 0.074,0.708 ± 0.066
RPS3A (UniProt P61247),0.881 ± 0.068,0.819 ± 0.12,0.787 ± 0.12,0.792 ± 0.15,0.698 ± 0.12,0.81 ± 0.1
UniProt P78332 and related entries,0.997 ± 0.038,1.04 ± 0.013,1.06 ± 0.036,1.17 ± 0.043,1.14 ± 0.022,1.19 ± 0.014
UniProt P61106,0.96 ± 0.041,0.98 ± 0.048,0.941 ± 0.057,0.94 ± 0.11,0.943 ± 0.053,0.956 ± 0.052
UniProt P84095,0.979 ± 0.034,0.96 ± 0.035,0.909 ± 0.03,0.967 ± 0.034,0.92 ± 0.066,0.927 ± 0.037
NAA20 (UniProt P61599),1.09 ± 0.2,1.08 ± 0.18,1.05 ± 0.24,1.01 ± 0.17,1.11 ± 0.14,1.04 ± 0.12
UniProt P62277,0.891 ± 0.059,0.809 ± 0.11,0.783 ± 0.18,0.711 ± 0.13,0.719 ± 0.13,0.81 ± 0.15
UniProt P62263,0.985 ± 0.04,0.955 ± 0.055,0.911 ± 0.078,0.908 ± 0.082,0.787 ± 0.065,0.899 ± 0.067

Target,NP40-soluble protein abundance (concentration: 1mM),NP40-soluble protein abundance (concentration: 2mM),NP40-soluble protein abundance (concentration: 4mM),NP40-soluble protein abundance (concentration: 6mM),NP40-soluble protein abundance (concentration: 8mM),NP40-soluble protein abundance (concentration: 10mM)
UniProt P62495,1.01 ± 0.095,0.993 ± 0.072,0.968 ± 0.078,0.951 ± 0.13,1.03 ± 0.081,0.971 ± 0.057
UniProt P55884 and related entries,1 ± 0.062,1.05 ± 0.053,1.14 ± 0.033,1.18 ± 0.025,1.42 ± 0.064,1.56 ± 0.057
UniProt P53778 and related entries,0.971 ± 0.086,0.968 ± 0.065,1.01 ± 0.077,0.911 ± 0.11,0.995 ± 0.066,1.04 ± 0.13
UniProt P62487,1.06 ± 0.099,1.09 ± 0.11,1.05 ± 0.14,1.06 ± 0.089,1.04 ± 0.15,1.03 ± 0.098
USP14 (UniProt P54578),0.985 ± 0.038,0.985 ± 0.016,0.942 ± 0.026,0.988 ± 0.032,0.95 ± 0.025,0.952 ± 0.031
UniProt P98095 and related entries,0.941 ± 0.014,0.975 ± 0.026,0.973 ± 0.025,1 ± 0.038,0.929 ± 0.05,0.978 ± 0.038
TFAM (UniProt Q00059),0.94 ± 0.14,0.915 ± 0.071,0.909 ± 0.091,0.958 ± 0.12,0.955 ± 0.018,0.815 ± 0.18
UniProt P61254,0.915 ± 0.18,0.86 ± 0.16,0.803 ± 0.17,0.786 ± 0.17,0.645 ± 0.2,0.842 ± 0.15
UniProt P61960,0.925 ± 0.11,0.916 ± 0.066,0.846 ± 0.1,0.925 ± 0.048,0.957 ± 0.038,0.849 ± 0.049
RPL7A (UniProt P62424),0.954 ± 0.028,0.897 ± 0.058,0.87 ± 0.057,0.83 ± 0.083,0.72 ± 0.082,0.89 ± 0.075
UniProt P55210 and related entries,0.973 ± 0.028,0.961 ± 0.018,0.938 ± 0.04,0.987 ± 0.031,0.918 ± 0.016,0.935 ± 0.028
RAB8A (UniProt P61006),0.962 ± 0.043,0.951 ± 0.042,0.884 ± 0.043,0.945 ± 0.081,0.89 ± 0.044,0.905 ± 0.035
CTSC (UniProt P53634),0.991 ± 0.11,0.989 ± 0.078,0.97 ± 0.095,0.976 ± 0.076,0.956 ± 0.059,0.927 ± 0.074
UniProt P60174 and related entries,0.969 ± 0.025,0.9459 ± 0.007,0.911 ± 0.015,0.993 ± 0.012,0.893 ± 0.047,0.88 ± 0.039
PCBD1 (UniProt P61457),0.9532 ± 0.0054,0.896 ± 0.025,0.92 ± 0.022,0.861 ± 0.052,0.879 ± 0.019,0.842 ± 0.037
RBM3 (UniProt P98179),0.933 ± 0.099,1.02 ± 0.053,1.03 ± 0.064,1.11 ± 0.064,1.08 ± 0.045,1.13 ± 0.077
UniProt P62995 and related entries,1.24 ± 0.086,1.32 ± 0.17,1.45 ± 0.23,1.59 ± 0.34,1.55 ± 0.2,1.68 ± 0.26
UniProt P52948 and related entries,1.001 ± 0.0034,1.022 ± 0.0074,1.04 ± 0.011,1.11 ± 0.021,1.11 ± 0.017,1.17 ± 0.033
UniProt P61966,0.922 ± 0.054,1.03 ± 0.02,0.99 ± 0.042,1.02 ± 0.12,0.976 ± 0.061,0.973 ± 0.037
UniProt P63151,1.02 ± 0.067,1 ± 0.066,0.989 ± 0.065,0.958 ± 0.063,1.01 ± 0.064,0.989 ± 0.071
